From patent publication US10799474B2, “Method of treating leukemia utilizing somatic cell reprogramming” (priority 2016, dated 2020)
At least one structure is not confirmed: it was looked up by name or label, or the drawing left a doubt.

Tests used:
[1] = tested on: acute lymphoblastic leukemia (ALL) induced by NOTCH1; test: Survival in ALL model induced by NOTCH1; assay type: in vivo, mouse; conditions: Dox in drinking water 7 consecutive days, FIG. 2C
[2] = tested on: acute myeloid leukemia (AML) induced by MLL-NRIP3; test: Survival in AML model induced by MLL-NRIP3; assay type: in vivo, mouse; conditions: Dox in drinking water 7 consecutive days, FIG. 2B
[3] = tested on: normal hematopoietic stem cells/progenitor cells; assay type: in vivo; conditions: co-transplanted normal bone marrow cells and leukemic cells; Dox in drinking water 7 days; FIG. 5C
Experimental: 7. Reprogramming factors have less effect on normal hematopoietic stem cells/progenitor cells: bone marrow cells and leukemic cells of OSKM mice were co-transplanted into lethally irradiated mice. After leukemia developed in the mice, Dox was added into the drinking water of the mice in experimental group for 7 days. […] It can be seen from FIG. 5A that the ratios of normal hematopoietic stem cells and progenitor cells in the mouse bone marrows were not affected after Dox treatment. […] It can be seen from FIG. 5B that the apoptosis of normal hematopoietic stem cells and progenitor cells was not affected after Dox treatment. […] It can be seen from FIGS. 5A, 5B, and 5C that the number and apoptosis of normal hematopoietic stem cells/progenitor cells were not affected and the mice in the experimental group were recovered from leukemia.

[4] = tested on: mouse acute myeloid leukemic cells (MLL-AF9) from OSKM mice; test: Elimination of leukemic cells in-vivo, MLL-AF9 AML model, OSKM expression activated by Dox

C[C@H]1c2cccc(O)c2C(=O)C2=C(O)[C@]3(O)C(=O)C(C(N)=O)=C(O)[C@@H](N(C)C)[C@@H]3[C@@H](O)[C@@H]21 [Dox, doxycycline] was tested, and the “survival of leukemic mice” value [1] was “all the mice in the experimental group survived”, the “survival of leukemic mice” value [2] was “only a small number of mice in the experimental group died” and the “survival of leukemic mice” value [3] was “except one, all the leukemic mice in experimental group were cured”. The “survival of leukemic mice” value ([4]; AML model induced by MLL-AF9, Dox in drinking water 7 consecutive days, FIG. 2A) was “all the mice in the experimental group survived”, the “leukemic cells in the spleen and bone marrow of the mice” value ([4]; Dox 1 mg/ml in drinking water, 7 consecutive days, late stage of leukemia, flow cytometry, FIGS. 1A-1C) was “undetectable” and the “apoptosis of leukemic cells in spleen and bone marrow” value ([4]; Dox in drinking water 1-4 days, early and late stage of leukemia, flow cytometry, FIGS. 4A, 4B) was “effectively induce the apoptosis”.
